# The other results are listed elsewhere or left out.
# Protein sequences, listed by entry. Tags and fused reporters are not part of them.
# UniProt Q0JBA9, entry or part of it: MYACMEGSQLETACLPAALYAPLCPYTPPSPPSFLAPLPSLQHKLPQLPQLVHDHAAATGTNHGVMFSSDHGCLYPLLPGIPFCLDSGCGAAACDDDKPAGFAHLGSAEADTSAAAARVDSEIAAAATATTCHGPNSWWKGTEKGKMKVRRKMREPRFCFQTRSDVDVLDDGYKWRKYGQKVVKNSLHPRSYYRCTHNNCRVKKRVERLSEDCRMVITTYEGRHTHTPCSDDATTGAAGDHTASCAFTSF
# Target: OsWRKY34 (Oryza sativa, UniProt Q0JBA9 1-250)
# Test: protein-binding microarray (RPBM); PBS, 2% BSA, 51.3 ng/ul salmon testes DNA, 50 uM zinc acetate, 200 nM TF, 25 C, 1 h; high values mean tight binding
# Details: protein: recombinant; tags: N-terminal polyhistidine and DsRed monomer fusion (pET32a); label: CyDye5-dUTP incorporated in the synthesized complementary strand; 3' TTTTT single-stranded linker to array surface; dsDNA, one strand shown
# Summary of the method: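 Transcription factors were each fused at the N-terminus to a polyhistidine tag plus DsRed and expressed in E. coli BL21-CodonPlus before Ni–NTA purification. Binding to a double-stranded custom Agilent array was carried out with 200 nM protein at 25 °C for 1 h in PBS, 2% BSA, salmon testes DNA and 50 µM zinc acetate. The binding signal is per-feature fluorescence intensity, in arbitrary units, on an Axon 4000B scanner.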
row,Sequence,binding signal
1,CACCCTCACCCTCGTCGCCAACCGCCCCGCCCTCGCGGTCCGGAGTCACCTAGTGCAG,9250 fluorescence intensity (a.u.)
2,GCGGTGGAGGGCCGGCGGAGAGGGGAGCAGCGGTGGAGGGCGGAGTCACCTAGTGCAG,11000 fluorescence intensity (a.u.)
3,GATATTTATGATCCTGTTACCATTTCGAGCCTTACTGTTTCGGAGTCACCTAGTGCAG,13200 fluorescence intensity (a.u.)
4,CGTTCGTTTTTTCCTTCTTTGCAGCCGCTACCAGCTCCCACGGAGTCACCTAGTGCAG,9020 fluorescence intensity (a.u.)
5,ACTCTGGGTTTCCGTGTCCAATTTTGACTGTCCGTCTTATCGGAGTCACCTAGTGCAG,11700 fluorescence intensity (a.u.)
6,GAGTCTACTGGCAAAATTTTGCTCTCTATTTTTTTTTTCTCGGAGTCACCTAGTGCAG,8370 fluorescence intensity (a.u.)
7,TTTGCTTACTCTCTCCGCCCTCCTAAACCCTACGACCATGCGGAGTCACCTAGTGCAG,8870 fluorescence intensity (a.u.)
8,GTGTGGCCCACTTCCGGACCCCAACAACCAACCAAAACCTCGGAGTCACCTAGTGCAG,9140 fluorescence intensity (a.u.)
9,CCACAGCTCCGGCCTTTTTATTTTTAATTTTTTTTAATTACGGAGTCACCTAGTGCAG,8670 fluorescence intensity (a.u.)
10,ATGATCGTTTATCCAGTGTCCTATAATGCTCCTATATTCACGGAGTCACCTAGTGCAG,11000 fluorescence intensity (a.u.)
11,TTCCGGTTTTCTGATATTTTCGATATTGTTTTCATTTCCGCGGAGTCACCTAGTGCAG,15500 fluorescence intensity (a.u.)
12,CTCTCTCTCTCTCTTTCCTCTCGCTATCGCCGTATCTCTCCGGAGTCACCTAGTGCAG,11800 fluorescence intensity (a.u.)
13,TCAAACTGACTGGCACGCTCGCATCTCATCAATCGTTGGACGGAGTCACCTAGTGCAG,9580 fluorescence intensity (a.u.)
14,ACCCCGACCGCCGGCCCAAAATCCTCATTGCTTGTAGTAGCGGAGTCACCTAGTGCAG,8650 fluorescence intensity (a.u.)
15,CAAGAGTCTGTCCACGTCGGTCTTTTAGCTCTTTCTGTAACGGAGTCACCTAGTGCAG,8210 fluorescence intensity (a.u.)
16,TTAGCATCCCGGCGGTCTCACCTGTCATCTCATCTCATCTCGGAGTCACCTAGTGCAG,13500 fluorescence intensity (a.u.)
17,ATGTTAAATTAGTCTTAGTGCTTCCACCCTAGTAAACAACCGGAGTCACCTAGTGCAG,8320 fluorescence intensity (a.u.)
18,TCTAAAAATCTAGCTGCATTTCACATTTCATCATCCTCCTCGGAGTCACCTAGTGCAG,8360 fluorescence intensity (a.u.)
19,CGTCCCTTTCGCCCAGCACCTTGTCGGAGACCGACGCGCCCGGAGTCACCTAGTGCAG,9110 fluorescence intensity (a.u.)
20,CCGCACGATATTCTTGACATCCCCTTGTCTCATTTGCACACGGAGTCACCTAGTGCAG,8800 fluorescence intensity (a.u.)
21,ACTAGTCGTCTCGTCGTGCTGCGCACTCGCCCCATCGACGCGGAGTCACCTAGTGCAG,8620 fluorescence intensity (a.u.)

row,Sequence,binding signal
1,GTTTGACCAGATGCTTTCAATTTCCTATGACTCATTTATTCGGAGTCACCTAGTGCAG,10200 fluorescence intensity (a.u.)
2,TCTCCACCACTCGTTGACCAGCTATCTTCCTCTTGCCTTCCGGAGTCACCTAGTGCAG,16000 fluorescence intensity (a.u.)
3,ACAAGCCCTGAACGATGCATTCACACGGATCAATTAACACCGGAGTCACCTAGTGCAG,8230 fluorescence intensity (a.u.)
4,ATCCCAAGCTATATATATACTCATCTGATCCATTTCCTCCCGGAGTCACCTAGTGCAG,10400 fluorescence intensity (a.u.)
5,CCTAAAGATCAGCATTTAAAATATTTTTCGTGTATTTTCCCGGAGTCACCTAGTGCAG,8600 fluorescence intensity (a.u.)
6,TGACCGGTTTTGTTTAGTTAAGTGACCTCGCATATCTGTTCGGAGTCACCTAGTGCAG,9570 fluorescence intensity (a.u.)
7,GACACAAAACGCATGTCCCAACTCCCAGGTTCCATTTCCCCGGAGTCACCTAGTGCAG,8220 fluorescence intensity (a.u.)
8,TGGTGAGGGCTCGTTTTGTTTCTTGAGATCAGTTGGTATTCGGAGTCACCTAGTGCAG,8140 fluorescence intensity (a.u.)
9,CCCATCGCCTAGCTGCTTCGCCGTTTATTTTAAGATTTTTCGGAGTCACCTAGTGCAG,9040 fluorescence intensity (a.u.)
10,ACTATGGCCTGGTTTAGTTCCCAACTTTTTCTTTAAACTTCGGAGTCACCTAGTGCAG,9850 fluorescence intensity (a.u.)
11,TGCTGGTGAGCTAACGTGACCGAACCCAACATTATGTTCCCGGAGTCACCTAGTGCAG,8820 fluorescence intensity (a.u.)
12,AAGTTATGTTTGTTTTGTTGCATCATGCTTGTTATACTTTCGGAGTCACCTAGTGCAG,10800 fluorescence intensity (a.u.)
13,GGTTATGGGCGGGTTGAGCAATGTTTTTCATGATTAGTCTCGGAGTCACCTAGTGCAG,18600 fluorescence intensity (a.u.)
14,GACATGTGGGGTTTATTTTTGTTCTTGTCACGTAAACGTCCGGAGTCACCTAGTGCAG,10000 fluorescence intensity (a.u.)
15,CTCACACACCGGCGACCACCACTCCACTCTCCACCCACCCCGGAGTCACCTAGTGCAG,9310 fluorescence intensity (a.u.)
16,TCGGCTTTGCTTCTTCGGTCGCTTTTTTTTTTGGCTGTTCCGGAGTCACCTAGTGCAG,9160 fluorescence intensity (a.u.)
17,GATAACAAACGCACGGTTCTCATCTTCCATCGTCACTCACCGGAGTCACCTAGTGCAG,8680 fluorescence intensity (a.u.)
18,TGTTCTTGTTGATTTTTGTGTGTTTGTTTGACTGAAAGGTCGGAGTCACCTAGTGCAG,8980 fluorescence intensity (a.u.)
19,GCTTGATTTATTATTTACCATGTTAAAAATATTTATTTGTCGGAGTCACCTAGTGCAG,9270 fluorescence intensity (a.u.)
20,CCTTGGCCACCACCACTACTGCCCTTGATGGTATCCATACCGGAGTCACCTAGTGCAG,8290 fluorescence intensity (a.u.)
21,TCCTCCTCCTCGCCGCCGCCGCCGCCGCCGTCGCCGTCGACGGAGTCACCTAGTGCAG,8030 fluorescence intensity (a.u.)

# Copied from the list:
# Entry for TGACCGGTTTTGTTTAGTTAAGTGACCTCGCATATCTGTTCGGAGTCACCTAGTGCAG under binding signal: 9570 fluorescence intensity (a.u.)
# Entry for CAAGAGTCTGTCCACGTCGGTCTTTTAGCTCTTTCTGTAACGGAGTCACCTAGTGCAG under binding signal: 8210 fluorescence intensity (a.u.)
# Entry for TTCCGGTTTTCTGATATTTTCGATATTGTTTTCATTTCCGCGGAGTCACCTAGTGCAG under binding signal: 15500 fluorescence intensity (a.u.)

# — PMC7819943, “Rice protein-binding microarrays: a tool to detect cis-acting elements near promoter regions in rice”
